According to PubChem BioAssay AID493014 (National Center for Advancing Translational Sciences (NCATS), 2011):
“And” between values parts separate entries of the source, which are not always exact repeats. Equal values may be shown once. About 170 (0.05%) of roughly 340,000 compounds were called active. Inconclusive results, whose numbers are uncertain, are shown with a selection of clear calls. Calls follow the shape of the dose curve; as a rule, active = well fitted inhibition curve with a large enough effect in the signal ratio, with a control signal flat (not every such curve was filed as active); inconclusive = small, poorly fitted or top-dose-only effect, or effect the other way, or a change in a side signal; inactive = flat fitted curve, though single readings scatter; the % refers to the signal ratio. A potency beside an inconclusive call is a rough fit, not a confirmed value.

Assay: qHTS Assay to Find Inhibitors of Chronic Active B-Cell Receptor Signaling;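 as to activity change, negative = inhibition: plate controls were basal doxycycline-induced cells for no effect and cells given 10 µM MG132 for full effect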
Conditions: ABC-DLBCL IkBa-CBG/CBR reporter, luminescence ratio (green luciferase fused to IkBa over red control in TMD8 lymphoma cells), 4 h; activity change, negative = inhibition: at 46.1 µM (top of the series)
Method in brief: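 Doxycycline induced both beetle luciferases in TMD8 lymphoma cells; IKK-driven degradation limits the IkappaBalpha-fused green signal, while red luminescence normalises for cell number and nonspecific effects. Compounds tested up to 46 uM, 4 hrs.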
Potency is read from the fitted curve at half-maximal effect.

SMILES	activity change, negative = inhibition	Potency
Cc1cc(C)nc(SCC(=O)c2cc3ccccc3oc2=O)n1	inconclusive: -14.7%	
COc1ccc(CNC2CCN(Cc3ccccc3)CC2)cc1		inconclusive: 22.4 µM [falling, single point]
O=C(CCN1C(=O)c2ccccc2C1=O)Nc1cc(F)ccc1F		inconclusive: 29.1 µM [falling, single point]
NS(=O)(=O)c1ccc(CNC(=O)CCCSc2ccccc2)cc1		inconclusive: 0.447 µM [rising, full curve, poor fit]
O=c1cc(-c2ccccc2)[nH][nH]1		inconclusive: 23.1 µM [rising, single point]
COC(=O)C1=C(C)N(Cc2ccccc2)C(=NCCc2c[nH]c3ccccc23)N[C@H]1c1cccc(C(F)(F)F)c1	inconclusive: -0.246% and inconclusive: -4.31%	
C=CCn1c(-c2csc3ccccc23)n[nH]c1=S		inconclusive: 29.1 µM [falling, single point]
Nc1c(N(CCCO)C(=O)C2CCCCC2)c(=O)[nH]c(=O)n1Cc1ccccc1	inactive	
Cc1ccc(Cn2nnc(C(=O)Nc3cccc(C)c3C)c2N)cc1		inconclusive: 32.6 µM [falling, partial curve, poor fit]
COc1ccccc1NC(=O)COC(=O)c1ccc(N2CCCC2=O)cc1	inconclusive: -0.345%	
O=C1CS/C(=N\NC(=O)c2ccccc2)N1	inactive	
CC(=O)Nc1nc(C)c(-c2csc(Nc3ccc(O)cc3)n2)s1		inconclusive: 16.4 µM [cytotoxic, partial curve]
Cc1ccc(C)c(NC2=C(Cl)C(=O)OC2OC(=O)c2ccco2)c1 (stereo unspecified)	inactive	
CCc1ccc([C@@H]2C[C@H]3CN(Cc4ccccc4OC)C(=O)[C@]34CCCN24)cc1	inconclusive: -3.4%	
COc1ccccc1/C=N/N(C(C)=O)c1nc(-c2ccc(F)cc2)cs1		inconclusive: 0.794 µM [falling, partial curve, poor fit]
Cc1nc2c3ccccc3nc(NNC(=O)CCC(=O)NC(C)C)n2n1		inconclusive: 16.4 µM [rising, partial curve, poor fit]
O=c1ccsn1Cc1ccccc1	inconclusive: 14.8%	
CC(=O)c1ccc(NC(=O)C2CC(=O)N(Cc3ccccc3)C2)cc1 (stereo unspecified)	inconclusive: 6.08%	
O=C1CCc2cc(S(=O)(=O)N3CCC(C(=O)NCCC4=CCCCC4)CC3)ccc2N1	inconclusive: -3.12%	
Cc1ccc(CNc2ncnc3c2c(-c2ccccc2)cn3-c2ccccc2)cc1	inactive	
O=Cc1cccn1-c1ccc(O)cc1	inconclusive: -7.76%	
COC(=O)c1cccc(NC(=S)NCc2ccco2)c1	inactive	
CCC(=O)NCCc1nc2cc(NC(=O)c3ccc(F)cc3)ccc2n1C		inconclusive: 25.1 µM [rising, partial curve]
Cc1ccc(C(C)C)c(OCC(=O)NN=C2CCCCCCC2)c1		inconclusive: 29.1 µM [falling, single point]
COc1cc(CN2CCC(CO)(CCOc3ccccc3)CC2)cc(OC)c1	inconclusive: 0.859%	
COc1ccc(C2Nc3cc(OC)ccc3-n3cccc32)cc1 (stereo unspecified)		inconclusive: 15.8 µM [falling, partial curve, poor fit]

SMILES	activity change, negative = inhibition	Potency
Cc1c([N+](=O)[O-])cc(C(=O)Nc2ccc(Cc3ccncc3)cc2)cc1[N+](=O)[O-]	inactive	
CCOC(=O)C1=CN(Cc2cccc(F)c2)S(=O)(=O)NC1c1ccc(F)c(Cl)c1 (stereo unspecified)	inconclusive: 8.27%	
COc1ccc(NC(=O)c2cc(S(=O)(=O)N(Cc3ccccc3)c3ccccc3)ccc2Cl)cn1	inconclusive: 0.136%	
CCOC(=O)c1cnc(-n2[nH]c(C)c(Cc3ccccc3)c2=O)[nH]c1=O	inactive	
COCC(C)N=C1NN=C(c2cc(C)n(Cc3ccccc3Cl)c2C)CS1 (stereo unspecified)	inconclusive: -1.78%	
CCCN1C(=O)/C(=C/c2ccc3c(c2)OCO3)NC1=S	inactive	
CCOC(=O)c1c(C)n(C)c2cc(-c3ccc(F)cc3)c(O)cc12	inconclusive: 6.53%	
Cc1cccc(NC(=O)COc2ccc3oc4c(c3c2)CCCC4)n1		inconclusive: 25.9 µM [falling, single point]
O=C(OCc1nnc(-c2ccccc2)o1)c1ccc([N+](=O)[O-])o1	inactive	
COc1ccccc1Nc1ncc(-c2cccs2)s1	inconclusive: -7.32%	
O=C(NCC1CCCO1)C(c1cccs1)N(Cc1cccs1)C(=O)Cn1nnc(-c2cccs2)n1 (stereo unspecified)	inactive	
CCCNc1ccc(S(=O)(=O)N(CC)CC)cn1	inconclusive: 8.48%	
COc1ccc(Br)cc1CNC(=O)c1cc(=O)[nH]c2ccc(S(=O)(=O)N3CCCCC3)cc12	inactive	
OC(Cn1nnc2ccccc21)Cn1c(C(F)(F)F)nc2ccccc21 (stereo unspecified)	inconclusive: -3.09%	
O=C(CC1(O)C(=O)N(Cc2cccc3ccccc23)c2ccccc21)c1cccnc1 (stereo unspecified)		inconclusive: 18.4 µM [falling, single point]
Cc1ccccc1Cn1ccc(=NCc2ccccc2)cc1	inconclusive: -6.86%	
Cc1cc(OC(F)F)ccc1NC(=O)Nc1ccc([N+](=O)[O-])cc1	inconclusive: 6.32%	
Cc1ccc(OCCNC(=O)CCNC(=O)c2ccc(Cl)cc2)cc1	inconclusive: 0.693%	
CCc1ccc(/C=C/C(=O)c2ccc(N3CCOCC3)cc2)cc1	inactive	
CC(C)CC(NC=C1C(=O)OC(C)(C)OC1=O)C(=O)O (stereo unspecified)	inconclusive: 6.6%	
COc1ccc(Br)cc1/C=N/Nc1cccc(C(=O)O)c1		inconclusive: 23.1 µM [falling, partial curve]
O=C(Nc1nc(-c2cccc(Br)c2)cs1)Oc1ccccc1	inconclusive: -6%	
Cc1cc(NC(=O)CSc2nnc3c(C)cc4c(C)ccc(C)c4n23)no1	inactive	
Cc1cc(Cl)c(S(=O)(=O)N2CCN(c3ccccn3)CC2)cc1OCC(=O)NC1CCCCC1		inconclusive: 10 µM [falling, partial curve]
CC(C)CN(C(=O)Cn1ccccc1=O)C1CCS(=O)(=O)C1 (stereo unspecified)	inconclusive: 4.43%	

Structural class: the entries above with a CF3 group (two)
SMILES	activity change, negative = inhibition	Potency
COC(=O)C1=C(C)N(Cc2ccccc2)C(=NCCc2c[nH]c3ccccc23)N[C@H]1c1cccc(C(F)(F)F)c1	inconclusive: -0.246% and inconclusive: -4.31%	
OC(Cn1nnc2ccccc21)Cn1c(C(F)(F)F)nc2ccccc21 (stereo unspecified)	inconclusive: -3.09%	
